Assay results as given in publication PMC4321543.
Numbering of substitutions follows the chain as printed. Results are given in words; binding and its absence hold for the method and conditions named. In cells and extracts the contact can be indirect. Some entries that bind do so weakly or less than the wild type. Sequences can lack the tags named with a protein. Each block holds one binder with its values, some of them ahead of it.

Tests used:
[1] = biological target: T1, S6K2:Myc fusion protein (Arabidopsis) (UniProt Q39030); assay: co-IP; HA:Tap46 co-expressed with Myc-fused S6K proteins in N. benthamiana leaves by agroinfiltration; immunoprecipitation from leaf extracts with anti-Myc antibodies; co-immunoprecipitated HA:Tap46 detected by immunoblotting with anti-HA antibodies
T1 sequence: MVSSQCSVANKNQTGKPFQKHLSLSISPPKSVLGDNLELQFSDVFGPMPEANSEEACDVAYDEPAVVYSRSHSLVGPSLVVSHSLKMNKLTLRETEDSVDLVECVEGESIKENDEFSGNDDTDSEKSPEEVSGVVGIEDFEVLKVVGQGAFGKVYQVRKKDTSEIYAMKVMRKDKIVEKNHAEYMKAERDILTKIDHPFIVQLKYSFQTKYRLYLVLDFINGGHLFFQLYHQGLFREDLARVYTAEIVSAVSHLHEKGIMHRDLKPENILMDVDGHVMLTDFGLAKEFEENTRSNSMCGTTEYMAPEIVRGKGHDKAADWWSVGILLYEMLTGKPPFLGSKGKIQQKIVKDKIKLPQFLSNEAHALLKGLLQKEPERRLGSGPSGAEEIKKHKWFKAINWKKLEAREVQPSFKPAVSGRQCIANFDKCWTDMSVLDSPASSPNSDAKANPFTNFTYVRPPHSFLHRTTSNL

[2] = biological target: T2, S6K1(A):Myc fusion protein (Arabidopsis) (UniProt P42818); assay: as above
T2 sequence: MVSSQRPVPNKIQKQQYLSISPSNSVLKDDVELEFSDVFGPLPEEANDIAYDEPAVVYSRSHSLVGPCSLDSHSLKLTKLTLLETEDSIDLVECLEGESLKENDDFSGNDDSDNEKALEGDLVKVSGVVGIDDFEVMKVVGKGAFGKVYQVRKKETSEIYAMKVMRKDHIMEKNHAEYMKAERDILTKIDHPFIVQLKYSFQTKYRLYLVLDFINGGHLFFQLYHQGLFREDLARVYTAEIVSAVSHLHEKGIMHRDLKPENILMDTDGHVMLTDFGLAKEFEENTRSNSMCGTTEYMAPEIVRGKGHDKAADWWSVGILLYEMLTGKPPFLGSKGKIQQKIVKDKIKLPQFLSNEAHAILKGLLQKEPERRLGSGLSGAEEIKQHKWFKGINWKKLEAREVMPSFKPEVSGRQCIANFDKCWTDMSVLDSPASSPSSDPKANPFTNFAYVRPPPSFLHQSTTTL

[3] = biological target: T3, S6K1(D):Myc fusion protein (Arabidopsis) (UniProt P42818); assay: as above
T3 sequence: T2 sequence with A449D

[4] = biological target: T4, YFP^C:S6K2 fusion protein (Arabidopsis) (UniProt Q39030); assay: split reporter; BiFC: YFP^N and YFP^C fusions co-expressed in N. benthamiana leaves by agroinfiltration; after 48 hours mesophyll protoplasts or epidermal cells observed by confocal laser scanning microscopy
T4 sequence: T1 sequence

binding [1]: binds | binding [2]: binds | binding [3]: binds
B1: HA:Tap46 fusion protein (protein, UniProt Q8LDQ4 1-405)
chain: MGGLAMEEMPLSVLFEQARKIHLAASESGVDQDVVKKGCEMFQKCEDMIGKLALFSSNETKEDISTNNLKYLLVPYYLAELTEKIIQEDRIQIVKASYAKLKEFFSFCEAMELVPDEELEASSRGGSGAPADRRALKIARFKRQKAAEAKLLEIKERKERRGRSTKASALSTPVESGEDDIPDDDSEEEREAWLSSINLAICKAIDLLEMLKREEEMLSAIKERQLKDGEGGFSRDALDDRTKKAETWHRDAAARIQYSKPAQPITCATFAQDVLEGRASVSQGHEHKNQPLIFGPASIVGGPLSTERERMIAQVFQPSHRMPTMCIEDAGLTEMNIMNDWQEQTKKAIEEATTSWYNDKPLRRKEEDEEDDDEDEEAVMKARAFDDWKDDNPRGAGNKKLTPCG

binding [4]: binds
B2: YFP^N:Tap46 fusion protein (protein, UniProt Q8LDQ4 1-405)
chain: B1 chain
